For 4 molecules, binding results are on record in article doi:10.1101/348953.

By UniProt entry, the sequences of proteins in these tests, tags left out. Where a name states a change or a piece, a line headed by the entry shows the natural chain unless it says otherwise.
UniProt P15116: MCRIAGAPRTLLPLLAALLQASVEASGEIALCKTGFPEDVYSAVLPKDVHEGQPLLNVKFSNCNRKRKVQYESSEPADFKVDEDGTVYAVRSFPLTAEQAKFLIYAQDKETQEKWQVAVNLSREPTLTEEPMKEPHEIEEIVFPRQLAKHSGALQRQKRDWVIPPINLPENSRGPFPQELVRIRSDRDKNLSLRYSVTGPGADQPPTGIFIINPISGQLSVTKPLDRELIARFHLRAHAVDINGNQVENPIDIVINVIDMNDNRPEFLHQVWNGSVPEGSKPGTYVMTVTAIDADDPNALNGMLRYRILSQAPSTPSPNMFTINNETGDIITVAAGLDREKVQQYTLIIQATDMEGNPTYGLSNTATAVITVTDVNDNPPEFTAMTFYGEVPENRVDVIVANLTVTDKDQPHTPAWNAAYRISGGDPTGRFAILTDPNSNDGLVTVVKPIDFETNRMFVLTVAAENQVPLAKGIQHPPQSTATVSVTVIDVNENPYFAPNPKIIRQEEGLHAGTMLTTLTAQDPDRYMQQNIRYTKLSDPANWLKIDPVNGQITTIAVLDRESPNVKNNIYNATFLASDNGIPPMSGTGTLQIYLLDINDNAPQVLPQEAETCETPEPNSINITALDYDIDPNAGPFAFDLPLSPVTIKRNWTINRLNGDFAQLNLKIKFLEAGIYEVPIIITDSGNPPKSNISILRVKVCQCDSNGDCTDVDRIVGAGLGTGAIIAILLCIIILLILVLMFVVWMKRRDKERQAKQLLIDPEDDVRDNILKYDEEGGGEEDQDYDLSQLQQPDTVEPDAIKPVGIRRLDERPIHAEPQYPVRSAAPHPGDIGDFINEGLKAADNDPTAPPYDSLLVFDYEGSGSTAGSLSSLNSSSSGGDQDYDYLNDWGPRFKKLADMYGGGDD

No constants are given. Whether binding was seen depends on the method and setting. In cells and extracts the contact can be indirect. A yes stands for co-enrichment or nearness to the bait. Other partners may have been found.

The chains are these.
B1: ZYX (protein, UniProt Q62523 1-564)
chain: MAAPRPPPAISVSVSAPAFYAPQKKFAPVVAPKPKVNPFRPGDSEPPVAAGAQRAQMGRVGEIPPPPPEDFPLPPPPLIGEGDDSEGALGGAFPPPPPPMIEEPFPPAPLEEDIFPSPPPPLEEEGGPEAPTQLPPQPREKVCSIDLEIDSLSSLLDDMTKNDPFKARVSSGYVPPPVATPFVPKPSTKPAPGGTAPLPPWKTPSSSQPPPQPQAKPQVQLHVQPQAKPHVQPQPVSSANTQPRGPLSQAPTPAPKFAPVAPKFTPVVSKFSPGAPSGPGPQPNQKMVPPDAPSSVSTGSPQPPSFTYAQQKEKPLVQEKQHPQPPPAQNQNQVRSPGGPGPLTLKEVEELEQLTQQLMQDMEHPQRQSVAVNESCGKCNQPLARAQPAVRALGQLFHITCFTCHQCQQQLQGQQFYSLEGAPYCEGCYTDTLEKCNTCGQPITDRMLRATGKAYHPQCFTCVVCACPLEGTSFIVDQANQPHCVPDYHKQYAPRCSVCSEPIMPEPGRDETVRVVALDKNFHMKCYKCEDCGKPLSIEADDNGCFPLDGHVLCRKCHSARAQT
B2: integrin ITGB5 (protein, UniProt O70309 24-798)
chain: GLNICTSGSATSCEECLLIHPKCAWCSKEYFGNPRSITSRCDLKANLIRNGCEGEIESPASSTHVLRNLPLSSKGSSATGSDVIQMTPQEIAVSLRPGEQTTFQLQVRQVEDYPVDLYYLMDLSLSMKDDLENIRSLGTKLAEEMRKLTSNFRLGFGSFVDKDISPFSYTAPRYQTNPCIGYKLFPNCVPSFGFRHLLPLTDRVDSFNEEVRKQRVSRNRDAPEGGFDAVLQAAVCKEKIGWRKDALHLLVFTTDDVPHIALDGKLGGLVQPHDGQCHLNEANEYTASNQMDYPSLALLGEKLAENNINLIFAVTKNHYMLYKNFTALIPGTTVEILHGDSKNIIQLIINAYSSIRAKVELSVWDQPEDLNLFFTATCQDGISYPGQRKCEGLKIGDTASFEVSVEARSCPGRQAAQSFTLRPVGFRDSLQVEVAYNCTCGCSTGLEPNSARCSGNGTYTCGLCECDPGYLGTRCECQEGENQSGYQNLCREAEGKPLCSGRGECSCNQCSCFESEFGRIYGPFCECDSFSCARNKGVLCSGHGECHCGECKCHAGYIGDNCNCSTDVSTCKAKDGQICSDRGRCVCGQCQCTEPGAFGETCEKCPTCPDACSSKRDCVECLLLHQGKPDNQTCHHQCKDEVITWVDTIVKDDQEAVLCFYKTAKDCVMMFSYTELPNGRSNLTVLREPECGSAPNAMTILLAVVGSILLIGMALLAIWKLLVTIHDRREFAKFQSERSRARYEMASNPLYRKPISTHTVDFAFNKFNKSYNGSV
B3: p120-catenin (CTNND1) (protein, UniProt P30999 1-938)
chain: MDDSEVESTASILASVKEQEAQFEKLTRALEEERRHVSAQLERVRVSPQDANSLMANGTLTRRHQNGRFVGDADLERQKFSDLKLNGPQDHNHLLYSTIPRMQEPGQIVETYTEEDPEGAMSVVSVETTDDGTTRRTETTVKKVVKTMTTRTVQPVPMGPDGLPVDASAVSNNYIQTLGRDFRKNGNGGPGPYVGQAGTATLPRNFHYPPDGYGRHYEDGYPGGSDNYGSLSRVTRIEERYRPSMEGYRAPSRQDVYGPQPQVRVGGSSVDLHRFHPEPYGLEDDQRSMGYDDLDYGMMSDYGTARRTGTPSDPRRRLRSYEDMIGEEVPPDQYYWAPLAQHERGSLASLDSLRKGMPPPSNWRQPELPEVIAMLGFRLDAVKSNAAAYLQHLCYRNDKVKTDVRKLKGIPILVGLLDHPKKEVHLGACGALKNISFGRDQDNKIAIKNCDGVPALVRLLRKARDMDLTEVITGTLWNLSSHDSIKMEIVDHALHALTDEVIIPHSGWEREPNEDCKPRHIEWESVLTNTAGCLRNVSSERSEARRKLRECDGLVDALIFIVQAEIGQKDSDSKLVENCVCLLRNLSYQVHREIPQAERYQEALPTVANSTGPHAASCFGAKKGKDEWFSRGKKPTEDPANDTVDFPKRTSPARGYELLFQPEVVRIYISLLKESKTPAILEASAGAIQNLCAGRWTYGRYIRSALRQEKALSAIAELLTSEHERVVKAASGALRNLAVDARNKELIGKHAIPNLVKNLPGGQQNSSWNFSEDTVVSILNTINEVIAENLEAAKKLRETQGIEKLVLINKSGNRSEKEVRAAALVLQTIWGYKELRKPLEKEGWKKSDFQVNLNNASRSQSSHSYDDSTLPLIDRNQKSDKKPDREEIPMSNMGSNTKSLDNNYSTLNERGDHNRTLDRSGDLGDMEPLKGAPLMQKI
B4: αT(Testes)-catenin (CTNNA3) (protein, UniProt Q65CL1 1-895)
chain: MSAETPITLNMDTQDLQIQTFTVEKLLEPLIIQVTTLVNCPQNPSNRKKGRSKRARVLLASVEEATWNLLDKGEMIAKEATVLKEELAAALQEVRKESKALKVSAERFTDDPCYLPKREAVVQAARALLAAVTRLLVLADMIDVMCLLQHVSSFQRTFESLKNVSNKSDLQRTYQKLGKELESLDYLAFKRQQDLKSPSQRDEIAGARATLKENSPLLHSICSACLEHSDVASLKASKDTVCEEIQNALDVISNASQGIQNAPAPPEPQAATLGSAFDELENLIVLNPLTVTEEDVRPSLEKRLEAIISGAALLADSSCTRDLHRERIIAECNAIRQALQDLLTEYMSNTGKTERSNTLNTAIVNMSKKTRDLRRQLRKAIIDHISDSFLDTTVPLLVLIEAAKNGRVKEIKDYAAIFHEHTGRLVEVANLACSMSTNEDGIKIVRIAANHLETLCPQIINAALALASRPKSQVVKNTMEMYKRTWEHYIHVLTEAVDDITSIDDFLAVSESHILEDVNKCIIALRDQDADNLDRAAGAIRGRAARVAHIVAGEMDSYEPGAYTEGVMRNVNFLTSTVIPEFVTQVNVALDALSKNSLTALDDNQFVDISKKIYDTIHDIRCSVMMIRTPEELEDVSDLEDDHEVRSHTSIQTEGKTDRAKMTQLPEAEKEKIAEQVADFKKVKSKLDAEIEIWDDTSNDIIVLAKKMCMIMMEMTDFTRGKGPLKHTTDVIYAAKMISESGSRMDVLARQIANQCPDPPCKQDLLAYLEQIKFYSHQLKICSQVKAEIQNLGGELIVSALDSVTSLIQAAKNLMNAVVQTVKMSYIASTKIIRIQSSAGPRHPVVMWRMKAPAKKPLIKREKPEETWAAVRRGSAKKKIHPVQVMSEFRGRQVY

The target in this test is Cdh2-BioID2 (mouse N-cadherin with BioID2-HA fused to the C-terminal tail) (mouse) (UniProt P15116). The test is described as follows: proximity labelling.
B1: the binding result is reported as “binds”.

For the molecule B2, the binding entry is “binds”.

Regarding B3, the binding result is given as “binds”.

In the case of B4, the binding entry is “binds”.
